PubChem BioAssay AID330 (DTP/NCI, 2004)
The list does not hold the whole screen: it is rich in T/C values a quarter to a half above the control, in often repeated tests (any T/C) and in doses without a T/C. Other doses and runs of a compound stand elsewhere. T/C is the treated group as % of the vehicle group. Some entries give survivors of the animals treated and no T/C: the source holds a T/C of zero for them, seemingly a mark for toxic or unscored doses. Some doses without a T/C left all or most animals alive at the check, yet need not have been tolerated: the source hardly ever lists a survival T/C far under the control, and the zero likely stands for such cases as well. Counts of survivors are from the toxicity check (mostly the fifth day) where no day follows; animals may have died later. Schedule codes are those of the source, read here as Q, the interval in days (D) or hours (H), X, the number of doses. Some molecules as drawn cover several salts, stereoisomers or complexes of the source; a dose is that of the sample tested. Some entries hold several experiments; the values are given in rising order. Where survival is the endpoint, this PubChem deposit counts one and a half times the control or more as active, and values a quarter to a half above the control carry no call in these data; other NCI protocols may use other cut-offs.

Test system: P388 leukemia ip, CD2F1 mice, survival T/C
Test: NCI In Vivo Anticancer Drug Screen. Data for tumor model P388 Leukemia (intraperitoneal) in CD2F1 (CDF1) mice
Conditions: T/C endpoint: median survival time, higher T/C = longer survival
[1] = dose: 12.5 mg/kg/injection, schedule: Q01DX009 (ip), vehicle: saline with Tween-80
[2] = dose: 50.0 mg/kg/injection, schedule: Q01DX009 (ip), vehicle: saline with Tween-80
[3] = dose: 200.0 mg/kg/injection, schedule: Q01DX009 (ip), vehicle: saline with Tween-80
[4] = dose: 200.0 mg/kg/injection, schedule: Q01DX005 (ip), vehicle: saline

`C=C(C)C(=NC(C)(C)C)N(C(C)C)C(C)C` was tested. Which survivor count [1] did it give?
Its survivor count is 6 of 6.

What about the survivor count (dose: 25.0 mg/kg/injection, schedule: Q01DX009 (ip), vehicle: saline with Tween-80) of the same compound?
The survivor count was 5 of 6.

What about the survivor count (dose: 50.0 mg/kg/injection, schedule: Q01DX005 (ip), vehicle: Klucel (hydroxypropylcellulose) (HPC)) of the same compound?
Its survivor count is 2 of 5.

What about the survivor count [2] of the same compound?
Its survivor count is 6 of 6.

And the survivor count (dose: 50.0 mg/kg/injection, schedule: Q01DX009 (ip), vehicle: saline)?
Its survivor count is 0 of 6.

What about the survivor count (dose: 100.0 mg/kg/injection, schedule: Q01DX005 (ip), vehicle: Klucel (hydroxypropylcellulose) (HPC)) of the same compound?
The survivor count was 0 of 5.

What about the survivor count (dose: 100.0 mg/kg/injection, schedule: Q01DX009 (ip), vehicle: saline with Tween-80) of the same compound?
Its survivor count is 0 of 6 and 4 of 6.

What about the survivor count (dose: 100.0 mg/kg/injection, schedule: Q01DX009 (ip), vehicle: saline) of the same compound?
Its survivor count is 0 of 6.

And the survivor count (dose: 200.0 mg/kg/injection, schedule: Q01DX005 (ip), vehicle: Klucel (hydroxypropylcellulose) (HPC))?
The survivor count was 0 of 5.

What about the survivor count [3] of the same compound?
The survivor count was 0 of 6.

With `O=NN(CCCl)C(=O)NC1CCC(=O)NC1=O` (stereo not drawn) as the compound, how does the T/C (dose: 4.0 mg/kg/injection, schedule: Q01DX001 (iv), vehicle: saline + alcohol) read?
The T/C was 136 % of control.

What about the T/C (dose: 8.0 mg/kg/injection, schedule: Q01DX001 (oral), vehicle: saline + alcohol) of the same compound?
The T/C was 146 % of control.

And the T/C (dose: 8.0 mg/kg/injection, schedule: Q01DX005 (ip), vehicle: saline + alcohol)?
Its T/C is 135 % of control.

And the survivor count [1]?
The survivor count was 6 of 6.

What about the survivor count (dose: 16.0 mg/kg/injection, schedule: Q01DX005 (ip), vehicle: saline + alcohol) of the same compound?
Its survivor count is 5 of 6.

And the T/C (dose: 16.0 mg/kg/injection, schedule: Q01DX005 (iv), vehicle: saline + alcohol)?
The T/C was 146 % of control.

And the survivor count (dose: 20.0 mg/kg/injection, schedule: Q01DX001 (ip), vehicle: saline with Tween-80)?
The survivor count was 9 of 10.

And the survivor count (dose: 25.0 mg/kg/injection, schedule: Q04DX003 (ip), vehicle: saline with Tween-80)?
Its survivor count is 6 of 6.

What about the survivor count (dose: 32.0 mg/kg/injection, schedule: Q01DX001 (ip), vehicle: saline + alcohol) of the same compound?
Its survivor count is 5 of 6.

And the survivor count (dose: 32.0 mg/kg/injection, schedule: Q01DX001 (iv), vehicle: saline + alcohol)?
The survivor count was 6 of 6.

And the survivor count (dose: 32.0 mg/kg/injection, schedule: Q01DX001 (oral), vehicle: saline + alcohol)?
The survivor count was 6 of 6.

What about the survivor count (dose: 32.0 mg/kg/injection, schedule: Q01DX005 (ip), vehicle: saline + alcohol) of the same compound?
Its survivor count is 6 of 6.

What about the survivor count (dose: 32.0 mg/kg/injection, schedule: Q01DX005 (iv), vehicle: saline + alcohol) of the same compound?
Its survivor count is 5 of 6.

And the survivor count (dose: 32.0 mg/kg/injection, schedule: Q01DX005 (oral), vehicle: saline + alcohol)?
Its survivor count is 6 of 6.

What about the survivor count (dose: 35.0 mg/kg/injection, schedule: Q01DX001 (ip), vehicle: saline with Tween-80) of the same compound?
The survivor count was 5 of 10.

And the survivor count (dose: 50.0 mg/kg/injection, schedule: Q04DX003 (ip), vehicle: saline with Tween-80)?
Its survivor count is 5 of 6.

What about the survivor count (dose: 64.0 mg/kg/injection, schedule: Q01DX001 (ip), vehicle: saline + alcohol) of the same compound?
The survivor count was 6 of 6.

What about the survivor count (dose: 64.0 mg/kg/injection, schedule: Q01DX001 (iv), vehicle: saline + alcohol) of the same compound?
The survivor count was 5 of 6.

What about the survivor count (dose: 64.0 mg/kg/injection, schedule: Q01DX001 (oral), vehicle: saline + alcohol) of the same compound?
The survivor count was 5 of 6.

What about the survivor count (dose: 64.0 mg/kg/injection, schedule: Q01DX005 (oral), vehicle: saline + alcohol) of the same compound?
Its survivor count is 6 of 6.

And the survivor count (dose: 128.0 mg/kg/injection, schedule: Q01DX001 (oral), vehicle: saline + alcohol)?
Its survivor count is 3 of 6.

Which results are given for `BrCC[Se](Br)(Br)c1ccccc1`?
survivor count (dose: 12.5 mg/kg/injection, schedule: Q01DX009 (ip), vehicle: Klucel (hydroxypropylcellulose) (HPC)): 5 of 6; survivor count (dose: 25.0 mg/kg/injection, schedule: Q01DX009 (ip), vehicle: Klucel (hydroxypropylcellulose) (HPC)): 1 of 6; survivor count (dose: 50.0 mg/kg/injection, schedule: Q01DX009 (ip), vehicle: Klucel (hydroxypropylcellulose) (HPC)): 0 of 6; survivor count (dose: 100.0 mg/kg/injection, schedule: Q01DX009 (ip), vehicle: Klucel (hydroxypropylcellulose) (HPC)): 0 of 6; survivor count (dose: 200.0 mg/kg/injection, schedule: Q01DX009 (ip), vehicle: Klucel (hydroxypropylcellulose) (HPC)): 0 of 6

Which survivor count (dose: 400.0 mg/kg/injection, schedule: Q04DX002 (ip), vehicle: Klucel (hydroxypropylcellulose) (HPC)) does the source give for `COC1OCC2(C)OC(c3ccccc3)=NC2C1O` (stereo not drawn) here?
Its survivor count is 0 of 6.

Which results are given for `CN(C)c1ccc2nc3ccc(=O)cc-3sc2c1`?
T/C [2]: 129 % of control; T/C [3]: 136 % of control

For `Cc1onc(-c2c(Cl)cccc2Cl)c1C(=O)SC1=NC(C)N2C(SC(=O)c3c(-c4c(Cl)cccc4Cl)noc3C)=NC(C)N12` (stereo not drawn), which survivor count (dose: 200.0 mg/kg/injection, schedule: Q01DX005 (ip), vehicle: saline with Tween-80) is on record?
The survivor count was 6 of 6.

`O=c1[nH]c2cc(Cl)ccc2nc1/C=C(\O)c1ccccc1O` was tested. Which survivor count (dose: 120.0 mg/kg/injection, schedule: Q01DX005 (ip), vehicle: saline with Tween-80) did it give?
The survivor count was 6 of 6.

With `CC1OP(=S)(S)OC1C` (stereo not drawn) as the compound, how does the survivor count [4] read?
Its survivor count is 4 of 5.

For `CCN(CC)CCNc1cc(OC)c(C)c2cccnc12`, which survivor count [4] is on record?
The survivor count was 0 of 5.
